Experimental data: PubChem BioAssay AID1224830 (NIAID, 2016)

Aim: 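Genes whose knock-down alters the TNF-alpha reporter response to LPS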 (primary screen)
System: human THP-1 monocytic leukaemia cells, TNF dual-luciferase reporter clone, PMA-differentiated to macrophage-like cells
Reagent: siRNA pool against human genes, 50 nM
Time to read-out: LPS for 4 h, given about 3 days after siRNA transfection
Treatment: bacterial LPS (TLR4 ligand), 10 ng/ml
Measurement: 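TNF firefly reporter luminescence divided by renilla, normalised to the plate median, then turned into a robust z-score for each replicate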
Scale: TNF reporter robust z-score: higher = stronger TNF reporter response to LPS
Call rule: 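Each well counts as active if its z-score is over 2.8 or under -1.5; controls are left without a call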
This is a random part of about 18,000 deposited reagents. About 2,900 of all reagents (16%) count as active. 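Calls are made per well; low scores hint the gene aids the LPS response, high scores that it dampens it.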 Repeated entries: four replicate wells of each siRNA pool.

Target gene	PubChem SID	TNF reporter robust z-score	outcome
SPANXN2 (SPANX family member N2)	SID315465007	0.96	inactive
SPANXN2 (SPANX family member N2)	SID315465007	1.23	inactive
SPANXN2 (SPANX family member N2)	SID315465007	-0.01	inactive
SPANXN2 (SPANX family member N2)	SID315465007	0.55	inactive
SLCO4C1	SID315464282	0.13	inactive
SLCO4C1	SID315464282	-0.12	inactive
SLCO4C1	SID315464282	0.45	inactive
SLCO4C1	SID315464282	-0.09	inactive
KLHL15 (kelch like family member 15)	SID315459743	-1.29	inactive
KLHL15 (kelch like family member 15)	SID315459743	-1.24	inactive
KLHL15 (kelch like family member 15)	SID315459743	-1.11	inactive
KLHL15 (kelch like family member 15)	SID315459743	-1.55	active
KRTAP1-1 (keratin associated protein 1-1)	SID315459960	-0.32	inactive
KRTAP1-1 (keratin associated protein 1-1)	SID315459960	0.69	inactive
KRTAP1-1 (keratin associated protein 1-1)	SID315459960	-0.05	inactive
KRTAP1-1 (keratin associated protein 1-1)	SID315459960	1.14	inactive
APOA4 (apolipoprotein A4)	SID315447353	-0.63	inactive
APOA4 (apolipoprotein A4)	SID315447353	-0.04	inactive
APOA4 (apolipoprotein A4)	SID315447353	-0.81	inactive
APOA4 (apolipoprotein A4)	SID315447353	-0.17	inactive
TMEM248 (transmembrane protein 248)	SID315457382	-1.05	inactive
TMEM248 (transmembrane protein 248)	SID315457382	-0.14	inactive
TMEM248 (transmembrane protein 248)	SID315457382	-0.34	inactive
TMEM248 (transmembrane protein 248)	SID315457382	-0.73	inactive
C9orf85 (chromosome 9 open reading frame 85)	SID315462040	-0.2	inactive
C9orf85 (chromosome 9 open reading frame 85)	SID315462040	0.09	inactive
C9orf85 (chromosome 9 open reading frame 85)	SID315462040	-0.74	inactive
C9orf85 (chromosome 9 open reading frame 85)	SID315462040	0.23	inactive
PRRC2C (proline rich coiled-coil 2C)	SID315455079	1.04	inactive
PRRC2C (proline rich coiled-coil 2C)	SID315455079	1.11	inactive
PRRC2C (proline rich coiled-coil 2C)	SID315455079	0.86	inactive
PRRC2C (proline rich coiled-coil 2C)	SID315455079	1.3	inactive
DPYD (dihydropyrimidine dehydrogenase)	SID315448365	2.35	inactive
DPYD (dihydropyrimidine dehydrogenase)	SID315448365	2.29	inactive
DPYD (dihydropyrimidine dehydrogenase)	SID315448365	1.71	inactive
DPYD (dihydropyrimidine dehydrogenase)	SID315448365	2.34	inactive
LONRF3 (LON peptidase N-terminal domain and ring finger 3)	SID315459498	7.01	active
LONRF3 (LON peptidase N-terminal domain and ring finger 3)	SID315459498	0.65	inactive
LONRF3 (LON peptidase N-terminal domain and ring finger 3)	SID315459498	0.29	inactive
LONRF3 (LON peptidase N-terminal domain and ring finger 3)	SID315459498	-1.27	inactive
PLPP3 (phospholipid phosphatase 3)	SID315452687	-0.32	inactive
PLPP3 (phospholipid phosphatase 3)	SID315452687	0.13	inactive
PLPP3 (phospholipid phosphatase 3)	SID315452687	0.16	inactive
PLPP3 (phospholipid phosphatase 3)	SID315452687	-0.6	inactive

Reprinted from above (5 entries):
Target gene	PubChem SID	TNF reporter robust z-score	outcome
SPANXN2 (SPANX family member N2)	SID315465007	0.55	inactive
SLCO4C1	SID315464282	0.13	inactive
SLCO4C1	SID315464282	-0.12	inactive
SLCO4C1	SID315464282	0.45	inactive
SLCO4C1	SID315464282	-0.09	inactive

The results go on:
Target gene	PubChem SID	TNF reporter robust z-score	outcome
CTU2 (cytosolic thiouridylase subunit 2)	SID315464241	-0.94	inactive
CTU2 (cytosolic thiouridylase subunit 2)	SID315464241	0	inactive
CTU2 (cytosolic thiouridylase subunit 2)	SID315464241	0.19	inactive
CTU2 (cytosolic thiouridylase subunit 2)	SID315464241	0.44	inactive
JMJD6	SID315455074	-1.07	inactive
JMJD6	SID315455074	-0.3	inactive
JMJD6	SID315455074	-0.55	inactive
JMJD6	SID315455074	-0.27	inactive
KANSL1L (KAT8 regulatory NSL complex subunit 1 like)	SID315462475	0.1	inactive
KANSL1L (KAT8 regulatory NSL complex subunit 1 like)	SID315462475	0.72	inactive
KANSL1L (KAT8 regulatory NSL complex subunit 1 like)	SID315462475	-0.01	inactive
KANSL1L (KAT8 regulatory NSL complex subunit 1 like)	SID315462475	0.77	inactive
KYNU (kynureninase)	SID315452945	0.58	inactive
KYNU (kynureninase)	SID315452945	-0.8	inactive
KYNU (kynureninase)	SID315452945	0.17	inactive
KYNU (kynureninase)	SID315452945	1.03	inactive
VTI1A (vesicle transport through interaction with t-SNAREs 1A)	SID315462177	-1.05	inactive
VTI1A (vesicle transport through interaction with t-SNAREs 1A)	SID315462177	-1.12	inactive
VTI1A (vesicle transport through interaction with t-SNAREs 1A)	SID315462177	-1.32	inactive
VTI1A (vesicle transport through interaction with t-SNAREs 1A)	SID315462177	0.05	inactive
NR1I3 (nuclear receptor subfamily 1 group I member 3)	SID315453718	1.02	inactive
NR1I3 (nuclear receptor subfamily 1 group I member 3)	SID315453718	1.29	inactive
NR1I3 (nuclear receptor subfamily 1 group I member 3)	SID315453718	1.52	inactive
NR1I3 (nuclear receptor subfamily 1 group I member 3)	SID315453718	1.35	inactive
COXFA4L2 (cytochrome c oxidase hypoxia associated subunit FA4L2)	SID315458145	1.04	inactive
COXFA4L2 (cytochrome c oxidase hypoxia associated subunit FA4L2)	SID315458145	0.84	inactive
COXFA4L2 (cytochrome c oxidase hypoxia associated subunit FA4L2)	SID315458145	1.65	inactive
COXFA4L2 (cytochrome c oxidase hypoxia associated subunit FA4L2)	SID315458145	2.5	inactive
CDC5L (cell division cycle 5 like)	SID315447817	-1.36	inactive
CDC5L (cell division cycle 5 like)	SID315447817	-1.2	inactive
CDC5L (cell division cycle 5 like)	SID315447817	-1.07	inactive
CDC5L (cell division cycle 5 like)	SID315447817	-0.41	inactive
FAM219A (family with sequence similarity 219 member A)	SID315463121	1.41	inactive
FAM219A (family with sequence similarity 219 member A)	SID315463121	-0.01	inactive
FAM219A (family with sequence similarity 219 member A)	SID315463121	2.4	inactive
FAM219A (family with sequence similarity 219 member A)	SID315463121	0.44	inactive
OGFOD2	SID315459376	-0.02	inactive
OGFOD2	SID315459376	1.21	inactive
OGFOD2	SID315459376	4.31	active
OGFOD2	SID315459376	1.48	inactive
TTC31 (tetratricopeptide repeat domain 31)	SID315458928	-0.27	inactive
TTC31 (tetratricopeptide repeat domain 31)	SID315458928	-0.64	inactive
TTC31 (tetratricopeptide repeat domain 31)	SID315458928	0.04	inactive
TTC31 (tetratricopeptide repeat domain 31)	SID315458928	-0.92	inactive
SLC7A8	SID315455236	0.92	inactive
SLC7A8	SID315455236	-0.32	inactive
SLC7A8	SID315455236	-0.04	inactive
SLC7A8	SID315455236	0.89	inactive
SEZ6L2 (seizure related 6 homolog like 2)	SID315455782	-0.44	inactive
SEZ6L2 (seizure related 6 homolog like 2)	SID315455782	-1.23	inactive
SEZ6L2 (seizure related 6 homolog like 2)	SID315455782	0.31	inactive
SEZ6L2 (seizure related 6 homolog like 2)	SID315455782	-0.31	inactive
FCRL3 (Fc receptor like 3)	SID315461304	-0.77	inactive
FCRL3 (Fc receptor like 3)	SID315461304	0.74	inactive
FCRL3 (Fc receptor like 3)	SID315461304	-0.5	inactive
FCRL3 (Fc receptor like 3)	SID315461304	0.32	inactive
RAD54L (RAD54 like)	SID315452559	-0.12	inactive
RAD54L (RAD54 like)	SID315452559	0.59	inactive
RAD54L (RAD54 like)	SID315452559	0.27	inactive
RAD54L (RAD54 like)	SID315452559	0.9	inactive
CD1E (CD1e molecule)	SID315447755	-0.28	inactive
CD1E (CD1e molecule)	SID315447755	-0.48	inactive
CD1E (CD1e molecule)	SID315447755	-0.47	inactive
CD1E (CD1e molecule)	SID315447755	-0.31	inactive
PIP5KL1 (phosphatidylinositol-4-phosphate 5-kinase like 1)	SID315462045	0.47	inactive
PIP5KL1 (phosphatidylinositol-4-phosphate 5-kinase like 1)	SID315462045	0.14	inactive
PIP5KL1 (phosphatidylinositol-4-phosphate 5-kinase like 1)	SID315462045	-0.58	inactive
PIP5KL1 (phosphatidylinositol-4-phosphate 5-kinase like 1)	SID315462045	0.21	inactive
